Measurements taken from article PMC11428279 (ACS Central Science, 2024).
Square brackets hold non-standard residues; d marks the D form. Ends that are not written are not given here. * marks the point of attachment. Pen = CC(C)(S)[C@H](N)C(=O)O; dOrn = NCCC[C@@H](N)C(=O)O; Nonanoyl = CCCCCCCCC(=O)*; Orn = NCCC[C@H](N)C(=O)O; Dap = NC[C@H](N)C(=O)O; Alloc = C=CCOC(=O)*

Experiment: general procedure: Fmoc solid-phase peptide synthesis; 2-chlorotrityl chloride resin (100–200 mesh, 0.4–1.0 mmol/g; loading 0.6 mmol/g); HCTU/DIPEA
Details: whole synthesis, TFA salt; for final HPLC purity: 214 nm
[1] = scale of the general procedure 0.1 mmol, cyclic, sequence written open
[2] = scale of the general procedure 0.1 mmol
[3] = scale 10 mmol, cyclic, sequence written open
[4] = scale of the general procedure 0.1 mmol, side-chain lactam ring, sequence written open

Substance	final HPLC purity [2]	isolated mass	isolated yield [2]	also measured
H-Thr-Ile-Asn-Gly-Gly	–	–	–	final HPLC purity [1]: 95.54%; isolated mass (cyclic, sequence written open): 3.9 mg; isolated yield [1]: 8.38%
Nonanoyl-[dS][dY][dW][dOrn][Orn]G[dOrn]ATINGG	98.01%	2.7 mg	2.1%	–
Nonanoyl-[dS][dY][dW][dOrn][Orn]G[dOrn]W[Pen]INGC (cysteine pairing not given here)	96.48%	61.2 mg	36.06%	–
Nonanoyl-D-Ser-D-Tyr-D-Trp-D-Orn-Orn-Gly- D-Orn-Trp-AzidoThr-Ile-Asn-Gly-Gly-NH2	95.88%	24.8 mg	15.05%	–
H-[dS][dY][dW][dOrn][Orn]G[dOrn]WTINGG	95.45%	4.2 mg	2.94%	–
Nonanoyl-[dS][dY][dW][dOrn][Orn]G[dOrn]WTINAG	95.20%	7.4 mg	4.57%	–
7-methyloctanoyl-D-Ser-D-Tyr-D-Trp-D-Orn-Orn-Gly- D-Orn-Trp-Thr-Ile-Asn-Gly-Gly	–	–	–	final HPLC purity [1]: 95.12%; isolated yield (overall, scale of the general procedure 0.1 mmol, cyclic, sequence written open): 17.07%; isolated mass (scale 0.1 mmol, cyclic, sequence written open): 27.4 mg; isolated mass [3]: 1600 mg; isolated yield [3]: 9.9%
Nonanoyl-[dS][dY][dW][dOrn][Orn]G[dOrn]WTINGA	96.08%	5.5 mg	3.39%	–
Nonanoyl-[dS][dY][dW][dOrn][Orn]G[dOrn]WTANGG	97.67%	30.1 mg	19.27%	–
Nonanoyl-[dS][dY][dW][dOrn][Orn]G[dOrn]WTIAGG	98.81%	3.8 mg	2.43%	–
Nonanoyl-D-Ser-D-Tyr-D-Trp-D-Orn-Orn-Gly- D-Orn-Trp-2,3-Dab-Ile-Asn-Gly-Gly	–	–	–	final HPLC purity [4]: 95.74%; isolated mass (side-chain lactam ring, sequence written open): 51.9 mg; isolated yield [4]: 37.34%
Nonanoyl-[dS][dY][dW][dOrn][Orn]G[dOrn]WTINGG-OH	95.18%	41.3 mg	25.47%	–
Nonanoyl-[dS][dY][dW][dOrn][Orn]G[dOrn]WTINGG	98.79%	15.2 mg	9.47%	–
Nonanoyl-[dS][dY][dW][dOrn][Orn]G[dOrn]WTINGG-NH2	96.97%	81.9 mg	50.46%	–
Nonanoyl-[dS][dY][dW][dOrn][Orn]G[dOrn]WTING-NH2	97.38%	70.7 mg	45.17%	–
Nonanoyl-[dS][dY][dW][dOrn][Orn]G[dOrn]W[Dap](Alloc)INGG-NH2	95.81%	84.4 mg	49.91%	–
Nonanoyl-[dS][dY][dW][dOrn][Orn]G[dOrn]WSINGG	95.04%	28.2 mg	17.71%	–
Nonanoyl-[dS][dY][dW][dOrn][Orn]G[dOrn]W[Dap]INGG	99.5%	2.7 mg	2.69%	–
2,4-DCB-D-Ser-D-Tyr-D-Trp-D-Orn-Orn-Gly- D-Orn-Trp-Thr-Ile-Asn-Gly-Gly	97.74%	14.5 mg	8.85%	–
